These are yes or no findings as the source states them, for the method shown. In cells and extracts the contact can be indirect. These calls come from enrichment with a bait or labelling near it, and not all partners need be listed. For some assays here: No binding means not detected with the bait.
Experiments:
[1] = biological target: BCL9-ΔHD1 (HD1-deleted variant of BCL9, endogenous in Bcl9/9l-ΔHD1 mouse tumors) (mouse (endogenous in mouse colorectal tumors)) (UniProt Q9D219); assay: affinity purification with mass spectrometry; anti-BCL9 antibody and protein A Sepharose on protein extracts of control or Bcl9/9l-ΔHD1 mouse tumors; hypotonic lysis buffer (20 mM tris-HCl, 75 mM NaCl, 1.5 mM MgCl2, 1 mM EGTA, 0.5% NP-40, 5% glycerol), 4 hr at 4°C, three washes in lysis buffer; LC-MS/MS
[2] = biological target: T1, BCL9 (full-length, endogenous in control mouse colorectal tumors) (mouse (endogenous in mouse colorectal tumors)) (UniProt Q9D219); assay: as above
T1 sequence: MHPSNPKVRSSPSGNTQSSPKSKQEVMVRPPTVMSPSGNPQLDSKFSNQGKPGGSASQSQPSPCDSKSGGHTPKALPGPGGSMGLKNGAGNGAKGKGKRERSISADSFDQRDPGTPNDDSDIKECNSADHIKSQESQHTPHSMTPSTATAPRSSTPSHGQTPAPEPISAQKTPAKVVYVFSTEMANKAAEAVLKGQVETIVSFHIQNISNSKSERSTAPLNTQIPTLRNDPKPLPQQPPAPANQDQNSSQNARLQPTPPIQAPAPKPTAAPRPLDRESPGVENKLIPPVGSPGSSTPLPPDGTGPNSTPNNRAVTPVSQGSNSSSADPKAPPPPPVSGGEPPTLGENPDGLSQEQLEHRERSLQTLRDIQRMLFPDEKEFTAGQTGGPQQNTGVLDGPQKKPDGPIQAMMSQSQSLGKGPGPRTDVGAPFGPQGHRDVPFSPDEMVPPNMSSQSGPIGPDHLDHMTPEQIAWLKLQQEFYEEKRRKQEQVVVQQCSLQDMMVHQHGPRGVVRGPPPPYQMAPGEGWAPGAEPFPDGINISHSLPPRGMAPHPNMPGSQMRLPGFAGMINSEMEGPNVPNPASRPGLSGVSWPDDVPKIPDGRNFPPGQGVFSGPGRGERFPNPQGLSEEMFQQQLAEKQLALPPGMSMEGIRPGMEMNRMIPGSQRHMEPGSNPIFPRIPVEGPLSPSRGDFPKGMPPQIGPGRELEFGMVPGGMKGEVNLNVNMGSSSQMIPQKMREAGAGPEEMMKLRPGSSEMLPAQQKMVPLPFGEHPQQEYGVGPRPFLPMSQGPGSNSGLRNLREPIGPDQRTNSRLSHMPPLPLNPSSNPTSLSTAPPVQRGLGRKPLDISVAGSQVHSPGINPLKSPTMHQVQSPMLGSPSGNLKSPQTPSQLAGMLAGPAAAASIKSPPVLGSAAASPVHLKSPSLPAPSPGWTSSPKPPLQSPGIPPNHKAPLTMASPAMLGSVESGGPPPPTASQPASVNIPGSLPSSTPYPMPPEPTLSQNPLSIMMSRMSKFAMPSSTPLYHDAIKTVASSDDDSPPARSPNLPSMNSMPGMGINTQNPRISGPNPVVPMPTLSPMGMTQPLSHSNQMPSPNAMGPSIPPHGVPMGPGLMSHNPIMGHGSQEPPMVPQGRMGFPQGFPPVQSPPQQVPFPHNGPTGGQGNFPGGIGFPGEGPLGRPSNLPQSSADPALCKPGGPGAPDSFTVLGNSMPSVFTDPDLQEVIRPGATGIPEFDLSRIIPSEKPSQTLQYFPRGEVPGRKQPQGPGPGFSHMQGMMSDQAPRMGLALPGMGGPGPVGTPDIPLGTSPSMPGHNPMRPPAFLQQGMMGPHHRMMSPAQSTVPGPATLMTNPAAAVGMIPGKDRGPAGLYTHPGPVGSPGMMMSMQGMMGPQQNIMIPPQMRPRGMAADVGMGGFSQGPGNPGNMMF

binding [1]: no binding | binding [2]: binds
B1: TBX3 (endogenous in mouse colorectal tumors) (protein, UniProt P70324 1-741)
chain: MSLSMRDPVIPGTSMAYHPFLPHRAPDFAMSAVLGHQPPFFPALTLPPNGAAALSLPGALAKPIMDQLVGAAETGIPFSSLGPQAHLRPLKTMEPEEDVEDDPKVHLEAKELWDQFHKRGTEMVITKSGRRMFPPFKVRCSGLDKKAKYILLMDIIAADDCRYKFHNSRWMVAGKADPEMPKRMYIHPDSPATGEQWMSKVVTFHKLKLTNNISDKHGFTLAFPSDHATWQGNYSFGTQTILNSMHKYQPRFHIVRANDILKLPYSTFRTYLFPETEFIAVTAYQNDKITQLKIDNNPFAKGFRDTGNGRREKRKQLTLQSMRVFEERHKKETSDESSSEQAAFNCFAQASSPAVSIVGTSNLKDLCPSEAESDAEAESKEEHGPEACDAAKISTTTAEEPGRDKGSPATRAQLFPAEPSRARDTARLDKASPDSRHSPATISSSTRVPGADERRSPGREGPVATKVDEARAIPAKDAFAPLSVQTDATAHLAQGPLPGLGFAPGLAGQQFFNGHPLFLHPGQFAMGGAFSSMAAGMGPLLATVSGASTGVSGLESTAMASAAAAQGLSGASAATLPFHLQQHVLASQGLAMSPFGSLFPYPYTYMAAAAAASTAAASSSVHRHPFLNLNSMRPRLRYSPYSIPVPVPDSSSLLATALPSMASAAGPLDGKAAALAASPASVAVDSGSELNSRSSTLSSGSVSLSPKLCSEKEAATSELQSIQRLVSGLEAKPDRSCSGSP

Reference: paper PMC7434441
